In US8664235B2, “6-Halogeno-[1,2,4]triazolo[1,5-a]pyrimidines for combating animal pests” (Merial Limited, priority 2003, dated 2014):
Some entries share one result that the patent states for a list of compounds.

What was measured:
Type in all cases: in vivo
[1] = tested on: Cotton Aphid (Aphis gossypii); test: Cotton aphid test, cotyledons dipped in test solution; conditions: 300 ppm, cotton plants, after 5 days
Method: (§1) Surfactant (Alkamuls EL 620) was added at the rate of 0.1% (vol/vol).
(§2) After the experiments were completed, in each case the lowest concentration was determined at which the compound still caused an 75 to 100% inhibition or mortality in comparison with untreated controls (limit or minimal concentration).
(§3) Cotton plants in the cotyledon stage (variety ‘Delta Pine’) are infested with approximately 100 laboratory-reared aphids by placing infested leaf sections on top of the test plants. The leaf sections are removed after 24 hr. The cotyledons of the intact plants are dipped into gradient solutions of the test compound. Aphid mortality on the treated plants, relative to mortality on check plants, is determined after 5 days.

[2] = tested on: Bean Aphid (Aphis fabae); test: Bean aphid test, nasturtium foliage and stem dipped; conditions: 300 ppm, nasturtium plants, after 3 days
Method: as §1, §2
Nasturtium plants in the 1st leaf-pair stage (variety ‘Mixed Jewel’) are infested with approximately 25 laboratory-reared aphids by placing infested cut plants on top of the test plants. The cut plants are removed after 24 hr. The foliage and stem of the test plants are dipped into gradient solutions of the test compound. Aphid mortality is determined after 3 days.

[3] = tested on: Green Peach Aphid (Myzus persicae); test: Green peach aphid test, pepper leaves dipped; conditions: 300 ppm, pepper plants, after 5 days
Method: as §1, §2
as §3, with “Pepper” for “Cotton”, “2nd leaf-pair” for “cotyledon”, “‘California Wonder’)” for “‘Delta Pine’)”, “40” for “100”, “leaves” for “cotyledons”

[4] = tested on: Twospotted Spider Mite (Tetranychus urticae); test: Twospotted spider mite test, lima bean foliage dipped; conditions: 300 ppm, lima bean plants, after 5 days
Method: as §1, §2
Lima bean plants in the 1st leaf-pair stage (variety ‘Henderson’) are infested with approximately 100 laboratory-reared mites per leaf by placing infested leaf sections on top of the test plants. The leaf sections are removed after 24 hr. The foliage of the intact plants is dipped into gradient solutions of the test compound. Mite mortality is determined after 5 days.

[5] = tested on: Southern Armyworm (Spodoptera eridania), 2nd Instar Larvae; test: Southern armyworm test, lima bean foliage dipped; conditions: 300 ppm, Sieva lima bean foliage dipped, at 5 days

SMILES	mortality in comparison with untreated controls [1]	mortality in comparison with untreated controls [3] [%]	further results
Cc1nc2ncnn2c(NCc2ccc(Oc3ccc(C(C)C)cc3)cc2)c1Cl [Example 76]	over 75%		mortality in comparison with untreated controls [2]: over 75%
Cc1nc2ncnn2c(NC(C)c2ccc(Cl)c(Cl)c2)c1Cl (stereo not shown) [Example 123]		100	
CCc1nc2ncnn2c(NCCc2ccc(Cl)cc2)c1Cl [Example 107]		100	
CCc1nc2ncnn2c(NCCc2ccc(OC)c(OC)c2)c1Cl [Example 108]	over 75%		
Cc1ccc([C@H](C)Nc2c(Cl)c(C)nc3ncnn23)cc1 [Example 122]	over 75%	100	
CCc1nc2ncnn2c(NCc2ccc(C(C)(C)C)cc2)c1Cl [Example 90]			mortality in comparison with untreated controls [4]: over 75%
Cc1ccc(Oc2ccc(CNc3c(Cl)c(C)nc4ncnn34)cc2)cc1 [Example 65]	over 75%		
Cc1nc2ncnn2c(NCc2ccc(Oc3ccc(Cl)cc3)cc2)c1Cl [Example 66]	over 75%		
CCc1nc2ncnn2c(N[C@@H](C)c2ccccc2)c1Cl [Example 152]	over 75%	100	
CCc1nc2ncnn2c(N[C@H](C)c2ccc(F)cc2)c1Cl [Example 162]	over 75%	100	
CCc1cccc(Oc2ccc(CNc3c(Cl)c(C)nc4ncnn34)cc2)c1 [Example 68]	over 75%		
Cc1nc2ncnn2c(NCc2ccc(C(F)(F)F)cc2)c1Cl [Example 56]			mortality in comparison with untreated controls [4]: over 75%
CCc1nc2ncnn2c(NC2CCC(C(C)C)CC2)c1Cl (stereo not shown) [Example 20]	over 75%	100	
CCc1nc2ncnn2c(NCc2ccccc2)c1Cl [Example 87]			mortality in comparison with untreated controls [4]: over 75%
CCc1nc2ncnn2c(NC(C)c2ccc(F)cc2)c1Cl (stereo not shown) [Example 150]	over 75%		
Cc1nc2ncnn2c(NC2CCC(C(C)(C)C)CC2)c1Cl (single isomer, unassigned) [Example 4]	over 75%	100	
Cc1nc2ncnn2c(NCc2ccc(Cl)cc2)c1Cl [Example 60]			mortality in comparison with untreated controls [4]: over 75%
CCc1nc2ncnn2c(NC2CCC(C(C)(C)C3CCCCC3)CC2)c1Cl (stereo not shown) [Example 19]	over 75%	100	
Cc1nc2ncnn2c(NCc2ccc(Oc3ccc(Br)c(Cl)c3)cc2)c1Cl [Example 78]			mortality in comparison with untreated controls [4]: over 75%
COc1ccc([C@H](C)Nc2c(Cl)c(C)nc3ncnn23)cc1 [Example 121]	over 75%	100	
Cc1nc2ncnn2c(NC(C)c2ccc(C(F)(F)F)cc2)c1Cl (stereo not shown) [Example 125]		100	
CCc1nc2ncnn2c(NCCc2ccc(C(C)(C)C)cc2)c1Cl [Example 109]		100	
CCc1nc2ncnn2c(N[C@H](C)c2ccc(C)cc2)c1Cl [Example 158]	over 75%	100	
Cc1nc2ncnn2c(NCc2ccc(Cl)c(Cl)c2)c1Cl [Example 59]			mortality in comparison with untreated controls [4]: over 75%
Cc1nc2ncnn2c(NCc2ccc(OC(C)(C)C)cc2)c1Cl [Example 58]	over 75%		mortality in comparison with untreated controls [4]: over 75%
Cc1ccc(Oc2ccc(CNc3c(Cl)c(C)nc4ncnn34)cc2)cc1C [Example 82]			mortality in comparison with untreated controls [4]: over 75%
Cc1nc2ncnn2c(NCc2ccc(C(C)(C)C)cc2)c1Cl [Example 57]		100	mortality in comparison with untreated controls [4]: over 75%

SMILES	mortality in comparison with untreated controls [1]	mortality in comparison with untreated controls [3] [%]	further results
CCc1nc2ncnn2c(NC2CCC(C(C)(C)C)CC2)c1Cl (single isomer, unassigned) [Example 13]	over 75%	100	
Cc1nc2ncnn2c(N[C@@H](C)c2ccccc2)c1Cl [Example 126]	over 75%	100	mortality in comparison with untreated controls [2]: over 75%
Cc1nc2ncnn2c(NCc2ccc(Oc3ccc(C(C)(C)C)cc3)cc2)c1Cl [Example 62]	over 75%		
Cc1nc2ncnn2c(N[C@@H](C)c2ccc(Cl)cc2)c1Cl [Example 120]	over 75%	100	mortality in comparison with untreated controls [4]: over 75%; mortality in comparison with untreated controls [2]: over 75%
CCc1nc2ncnn2c(N[C@H](C)c2ccc(Br)cc2)c1Cl [Example 160]	over 75%	100	
Fc1ccc(Nc2c(Cl)c(C(F)(F)F)nc3ncnn23)cc1 [Example 51]			mortality in comparison with untreated controls [5]: over 75%
CCc1nc2ncnn2c(N[C@@H](C)c2ccc(OC)cc2)c1Cl [Example 156]	over 75%	100	
Cc1nc2ncnn2c(NC2CCC(C(C)C)CC2)c1Cl (stereo not shown) [Example 6]	over 75%	100	mortality in comparison with untreated controls [2]: over 75%
CCc1nc2ncnn2c(N[C@@H](C)c2ccc(C)cc2)c1Cl [Example 157]	over 75%	100	
Cc1nc2ncnn2c(NCc2ccc(Oc3ccc(F)c(F)c3)cc2)c1Cl [Example 80]	over 75%		mortality in comparison with untreated controls [5]: over 75%
Cc1nc2ncnn2c(NC(C)c2ccc(F)cc2)c1Cl (stereo not shown) [Example 116]	over 75%	100	
CCc1nc2ncnn2c(NCc2ccc(OC(C)(C)C)cc2)c1Cl [Example 91]	over 75%		mortality in comparison with untreated controls [4]: over 75%
CCc1nc2ncnn2c(NC2CCC(C)CC2)c1Cl (stereo not shown) [Example 18]	over 75%		
CCc1nc2ncnn2c(N[C@@H](C)c2ccc(Br)cc2)c1Cl [Example 159]	over 75%	100	mortality in comparison with untreated controls [5]: over 75%
CCC(Nc1c(Cl)c(C)nc2ncnn12)c1ccc2c(c1)OC(F)(F)O2 (stereo not shown) [Example 189]	over 75%	100	
Cc1nc2ncnn2c(NC(C)c2ccc(Cl)cc2)c1Cl (stereo not shown) [Example 115]	over 75%	100	mortality in comparison with untreated controls [4]: over 75%
CCC(C)C1CCC(Nc2c(Cl)c(C)nc3ncnn23)CC1 (stereo not shown) [Example 8]	over 75%	100	
FC(F)(F)c1nc2ncnn2c(Nc2ccc(Cl)cc2)c1Cl [Example 52]			mortality in comparison with untreated controls [4]: over 75%
CCc1nc2ncnn2c(NC2CCC(C(C)CC)CC2)c1Cl (stereo not shown) [Example 14]	over 75%	100	
CCc1nc2ncnn2c(NC(C)c2ccc(Br)cc2)c1Cl (stereo not shown) [Example 149]			mortality in comparison with untreated controls [2]: over 75%
Cc1nc2ncnn2c(NC2CCC(C(C)(C)C3CCCCC3)CC2)c1Cl (stereo not shown) [Example 5]	over 75%	100	mortality in comparison with untreated controls [4]: over 75%; mortality in comparison with untreated controls [2]: over 75%
Cc1nc2ncnn2c(NCc2ccccc2)c1Cl [Example 55]		100	
CCc1nc2ncnn2c(NC(C)c2ccc(Cl)cc2)c1Cl (stereo not shown) [Example 118]	over 75%	100	
Cc1nc2ncnn2c(NCc2ccc(Oc3ccc(Cl)c(Cl)c3)cc2)c1Cl [Example 84]			mortality in comparison with untreated controls [4]: over 75%
CCc1nc2ncnn2c(NCCc2ccccc2)c1Cl [Example 106]		100	
CCc1nc2ncnn2c(NCc2ccc(C(F)(F)F)cc2)c1Cl [Example 89]		100	
Cc1nc2ncnn2c(NCCc2ccc(C(C)(C)C)cc2)c1Cl [Example 101]	over 75%		mortality in comparison with untreated controls [4]: over 75%
